Patent US10736973B2, “Glucose analogs for diagnosis states” (TECHNOLOGY INNOVATION MOMENTUM FUND (ISRAEL) LIMITED …, priority 2014, dated 2020)

Assay: CEST NMR of 10 mM glucose analog solutions (MTRasym)
Format: physicochemical
Details: 11.7 T
Description: • Chemicals and Media: 3OMG, D-glucose, D-glucose 6 phosphate, 2-DG and 2-DG-6P sodium salt were obtained from Sigma-Aldrich, Israel; FDG was obtained from Carbosynth Limited, UK. The glucose analogs were prepared at concentration of 10 mM (pH=7.5), containing 10% D2O for NMR field locking. • Cells: DA3-D1-DMBA-3 is a cell line derived from a poorly differentiated mammary adenocarcinoma induced in BALB/C mice by dimethylbenzanthracene. • Animals: BALB/C female mice were purchased and kept in the breeding facility of the Sackler School of Medicine, Tel Aviv University. To induce orthotropic tumors in mice, DA3 cells were injected into the lower left mammary gland of 8 week old (17-22 gr) female BALB/c mice (5×10^5 cells in 100 μL saline). All experiments with animal models were done in compliance with the principles of the National Research Council (NRC) and were approved by the institutional animal care and use committee (IACUC) (# M-12-035). • Preparation of Tumor Extracts: The tumors were surgically excised and weighed quickly and immediately immersed in liquid nitrogen. The frozen tumors were homogenized with a tissue homogenizer, using the methanol/CHCl3/H2O extraction method 19, a dual-phase extraction procedure to extract intracellular metabolites, with a volume ratio of 2:2:1.8, respectively. After centrifugation (−4° C., 4000×g, 12 min), only the upper aqueous phase was kept for analysis. The samples were dried gently by evaporator, than were frozen at −80° C., and lyophilized to dryness for 24 hr. Each sample was dissolved in 0.5 ml D2O (99.98%, Biolab, Israel), adjusted at pH=6.5-7 and inserted into 5 mm tube for NMR. • NMR Spectroscopy: 1H NMR Spectra were recorded at 500 MHz in 5 mm tubes on a Bruker 500 MHz DRX with the following parameters: spectral width 7500 Hz, pulse width 5.5 us (corresponding to a 45° flip angle); data size 16 K; relaxation delay 10 s; number of scans=16. […] The chemical exchange contrast was measured by magnetization transfer asymmetry, MTRasym. […]

SMILES: CO[C@@H]([C@H](O)[C@H](O)CO)[C@@H](O)C=O [3OMG, 3-O-methylglucose]
- CEST percent (MTRasym), peak at 1.2 ppm (10% D2O, pH=7.5, T=37° C., B1 3.6 μT (150 Hz)): 22%
- CEST effect at frequency offset of 1.2 ppm (pH ~7.5, rf saturation field 3.6-5.9 μT, T=25° C.): 20-32%
- CEST effect compared with the other glucose analogs (pH=7.5, T=37° C., B1=3.6 μT, versus 2-DG, 2-DG-6P, FDG, D-glu, D-glu-6P): significantly higher
